Experimental findings from patent US20110112279A1 are described below.

The chains behind the UniProt entries cited, without tags or fusion partners. Where a name states a change or a piece, a line headed by the entry shows the natural chain unless it says otherwise.
UniProt Q96CG8: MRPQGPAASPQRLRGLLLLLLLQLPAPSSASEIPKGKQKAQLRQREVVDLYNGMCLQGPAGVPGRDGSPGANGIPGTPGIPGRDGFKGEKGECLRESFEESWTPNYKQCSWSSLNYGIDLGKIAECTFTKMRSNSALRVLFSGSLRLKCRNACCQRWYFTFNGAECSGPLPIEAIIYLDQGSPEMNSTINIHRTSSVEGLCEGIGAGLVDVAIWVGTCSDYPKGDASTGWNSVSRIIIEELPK

Results are given in words; binding and its absence hold for the method and conditions named. Some entries that bind do so weakly or less than the wild type.

Experiment [1] addresses human STOP-1, full length, untagged, expressed by retroviral infection in 3T3 and 293 cells (human) (UniProt Q96CG8). Nature of the experiment: immunoprecipitation from lysates of infected 3T3 and 293 cells, western with polyclonal anti-STOP-1.
For experiment [2], the target named is human STOP-1, full length, C-terminal 8xHis tag (h762HIP; M1-K243-His), expressed in CHO-psgb cells (human) (UniProt Q96CG8). Kind of experiment: FACS on HT1080 cells with His-tagged STOP-1.

B1: S7 IgG (full-length human IgG1; LPG3-humankappaG6 and LPG4-humanHC-S7), expressed in CHO cells (antibody, V domains shown, not shown: a dimerising Fc or GST)
VH: EVQLVESGGGLVQPGGSLRLSCAASGFTISGSDIHWVRQAPGKGLEWVGRISPYGGNTNYADSVKGRFTISADTSKNTAYLQMNSLRAEDTAVYYCARVGGLKLLFDYWGQGTLVTVSS
VL: DIQMTQSPSSLSASVGDRVTITCRASQDVSTAVAWYQQKPGKAPKLLIYSASFLYSGVPSRFSGSGSGTDFTLTISSLQPEDFATYYCQQSYTTPPTFGQGTKVEIKR
B1: the binding entry in experiment [1] and in experiment [2] was “binds” each time.
